According to PMC10692919:
No constants are given. Whether binding was seen depends on the method and setting. Some entries that bind do so weakly or less than the wild type. Where a sequence is shown, tags or fusion partners need not be part of it.

Chains of the proteins cited; added tags and fusions are not shown. Residues count along the entry.
UniProt P22004, residues 375-513: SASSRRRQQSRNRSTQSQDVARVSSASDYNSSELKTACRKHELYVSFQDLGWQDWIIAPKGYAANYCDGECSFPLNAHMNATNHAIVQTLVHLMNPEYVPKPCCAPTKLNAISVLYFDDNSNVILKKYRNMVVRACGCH

Experiments:
Test in all cases: SPR; competition: extracellular portions of BMP receptors (Fc fusions) immobilised; BMP2 or BMP6 as analyte alone or mixed with bacterial WT or W82A ERFE N-terminal segment; both purified
[1] = target: T1, BMPRII-Fc (UniProt Q13873)
T1 sequence: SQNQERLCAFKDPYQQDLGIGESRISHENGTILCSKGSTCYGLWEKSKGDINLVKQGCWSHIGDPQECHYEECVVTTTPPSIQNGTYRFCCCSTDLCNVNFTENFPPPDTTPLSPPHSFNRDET

[2] = target: T2, Activin RIA/ALK2-Fc (UniProt Q04771)
T2 sequence: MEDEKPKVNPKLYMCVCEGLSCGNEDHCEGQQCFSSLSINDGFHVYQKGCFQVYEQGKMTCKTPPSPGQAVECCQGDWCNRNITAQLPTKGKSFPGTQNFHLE

[3] = target: T3, Activin RIIB-Fc (UniProt Q13705)
T3 sequence: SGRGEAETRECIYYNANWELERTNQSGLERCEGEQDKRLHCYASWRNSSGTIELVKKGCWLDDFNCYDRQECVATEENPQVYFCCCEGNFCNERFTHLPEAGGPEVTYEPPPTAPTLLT

Measured: binding

BMP6 homodimer (from UniProt P22004 375-513) (ligand)
binds: all assays above
